This note sets out measurements from article PMC8318901.

By UniProt entry, the sequences of proteins in these tests, tags left out.
UniProt P62137: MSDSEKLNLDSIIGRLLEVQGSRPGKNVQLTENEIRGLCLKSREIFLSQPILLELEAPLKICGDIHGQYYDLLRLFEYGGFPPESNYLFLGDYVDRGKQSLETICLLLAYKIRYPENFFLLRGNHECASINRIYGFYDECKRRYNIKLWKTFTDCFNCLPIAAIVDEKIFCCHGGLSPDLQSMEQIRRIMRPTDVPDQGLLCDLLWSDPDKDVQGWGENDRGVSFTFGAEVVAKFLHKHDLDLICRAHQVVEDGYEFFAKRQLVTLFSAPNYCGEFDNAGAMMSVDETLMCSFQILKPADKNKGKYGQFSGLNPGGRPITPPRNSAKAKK

The assay addresses T1, thiazide-sensitive sodium-chloride cotransporter (NCC) (mouse (endogenous in renal cortical tubules)) (UniProt P59158).
T1 sequence: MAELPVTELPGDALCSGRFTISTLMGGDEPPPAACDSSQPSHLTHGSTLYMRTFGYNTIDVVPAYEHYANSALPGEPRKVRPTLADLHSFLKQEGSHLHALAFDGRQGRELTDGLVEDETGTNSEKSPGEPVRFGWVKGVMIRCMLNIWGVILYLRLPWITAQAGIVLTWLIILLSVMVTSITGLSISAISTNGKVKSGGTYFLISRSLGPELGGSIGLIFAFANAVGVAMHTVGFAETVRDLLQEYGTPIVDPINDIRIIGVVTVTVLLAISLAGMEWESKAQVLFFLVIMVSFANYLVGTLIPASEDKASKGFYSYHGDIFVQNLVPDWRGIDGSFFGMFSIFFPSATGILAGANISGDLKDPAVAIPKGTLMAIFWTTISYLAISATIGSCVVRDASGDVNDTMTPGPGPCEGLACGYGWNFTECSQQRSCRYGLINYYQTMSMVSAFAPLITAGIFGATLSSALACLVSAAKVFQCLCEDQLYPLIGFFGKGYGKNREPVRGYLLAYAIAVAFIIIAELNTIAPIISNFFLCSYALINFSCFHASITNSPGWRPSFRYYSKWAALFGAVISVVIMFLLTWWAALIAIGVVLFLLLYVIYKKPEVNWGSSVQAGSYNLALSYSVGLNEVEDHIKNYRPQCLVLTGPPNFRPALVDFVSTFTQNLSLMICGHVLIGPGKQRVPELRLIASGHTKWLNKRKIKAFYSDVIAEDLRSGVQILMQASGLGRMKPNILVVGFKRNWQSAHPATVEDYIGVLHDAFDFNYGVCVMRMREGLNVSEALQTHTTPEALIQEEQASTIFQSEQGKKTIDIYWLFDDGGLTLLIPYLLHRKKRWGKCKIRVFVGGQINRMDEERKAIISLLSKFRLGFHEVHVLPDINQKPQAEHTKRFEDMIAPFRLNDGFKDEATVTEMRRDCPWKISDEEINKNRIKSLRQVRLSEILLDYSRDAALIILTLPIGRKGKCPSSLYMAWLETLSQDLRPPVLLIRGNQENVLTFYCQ
The assay can be described thus: co-IP; lysates of mouse renal cortical tubules grown in control (3.5 mM K+) or high K+ (8.0 mM K+) medium; lysis buffer 20 mM Tris, 135 mM NaCl, 1% Triton, 5 mM EDTA pH 7.4; 5 ug rabbit NCC antibody or 1 ug PP1α antibody with protein A-agarose or G plus-agarose, 4 °C overnight; immunoblot. Background: Immunoblotting shows a protein as a band on a membrane.

No constants are given. Whether binding was seen depends on the method and setting. Binding seen in cells or lysates may run through a third protein. Some results given as binding are weak or reduced against the parent protein; the word gives no strength.

For “protein phosphatase 1α (PP1α), alpha isoform of the PP1 catalytic subunit (from UniProt P62137 1-330) (enzyme)”, the binding entry is “binds”.
